Laboratory results from PubChem BioAssay (Tox21).
All entries are inconclusive by the source's own rule. Clear calls are listed elsewhere. Unless noted, calls come from the whole dose curve; as a rule, active = well fitted curve in the direction sought with a large enough effect in the repeat runs; inconclusive = weak or mixed curves; inactive = no such curve, though single readings can be large; an effect the other way counts as inactive or inconclusive.

Chains of the proteins cited; added tags and fusions are not shown.
UniProt P04150, whole entry: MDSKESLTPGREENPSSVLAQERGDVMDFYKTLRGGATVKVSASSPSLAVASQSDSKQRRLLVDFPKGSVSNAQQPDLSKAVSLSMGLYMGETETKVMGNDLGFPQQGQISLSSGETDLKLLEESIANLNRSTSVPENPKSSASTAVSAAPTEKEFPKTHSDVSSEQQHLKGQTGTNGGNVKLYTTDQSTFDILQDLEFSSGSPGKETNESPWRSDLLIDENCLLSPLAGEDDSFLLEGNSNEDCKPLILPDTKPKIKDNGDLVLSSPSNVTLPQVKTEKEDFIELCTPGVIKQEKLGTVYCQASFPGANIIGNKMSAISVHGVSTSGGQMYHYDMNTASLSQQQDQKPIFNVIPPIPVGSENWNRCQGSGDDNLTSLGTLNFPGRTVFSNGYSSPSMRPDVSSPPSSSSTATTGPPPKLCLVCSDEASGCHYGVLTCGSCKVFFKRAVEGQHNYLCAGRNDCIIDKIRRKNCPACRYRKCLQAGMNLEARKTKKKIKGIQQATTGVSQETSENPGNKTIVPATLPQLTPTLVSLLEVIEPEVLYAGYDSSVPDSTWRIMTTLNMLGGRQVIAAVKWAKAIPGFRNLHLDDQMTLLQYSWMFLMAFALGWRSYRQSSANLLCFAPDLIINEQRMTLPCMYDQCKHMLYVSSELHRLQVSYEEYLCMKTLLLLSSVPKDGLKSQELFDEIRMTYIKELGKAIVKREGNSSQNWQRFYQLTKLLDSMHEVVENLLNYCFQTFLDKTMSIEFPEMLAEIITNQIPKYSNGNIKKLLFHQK
UniProt P03372, whole entry: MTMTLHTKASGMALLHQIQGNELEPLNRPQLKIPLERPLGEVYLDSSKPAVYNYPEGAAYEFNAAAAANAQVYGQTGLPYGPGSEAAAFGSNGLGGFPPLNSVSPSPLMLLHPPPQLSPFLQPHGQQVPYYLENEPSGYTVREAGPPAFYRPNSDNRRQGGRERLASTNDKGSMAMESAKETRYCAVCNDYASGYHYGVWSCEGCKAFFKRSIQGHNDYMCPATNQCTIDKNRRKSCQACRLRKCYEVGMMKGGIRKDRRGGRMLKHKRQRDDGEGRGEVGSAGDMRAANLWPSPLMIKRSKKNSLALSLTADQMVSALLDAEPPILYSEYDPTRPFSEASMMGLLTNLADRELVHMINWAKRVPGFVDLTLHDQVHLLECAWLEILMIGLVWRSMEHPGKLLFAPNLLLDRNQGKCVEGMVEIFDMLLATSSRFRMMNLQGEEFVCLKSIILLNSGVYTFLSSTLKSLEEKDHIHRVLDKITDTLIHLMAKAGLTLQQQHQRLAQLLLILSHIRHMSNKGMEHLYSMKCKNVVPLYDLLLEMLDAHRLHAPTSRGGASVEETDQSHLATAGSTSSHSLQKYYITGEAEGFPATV
UniProt P10635, whole entry: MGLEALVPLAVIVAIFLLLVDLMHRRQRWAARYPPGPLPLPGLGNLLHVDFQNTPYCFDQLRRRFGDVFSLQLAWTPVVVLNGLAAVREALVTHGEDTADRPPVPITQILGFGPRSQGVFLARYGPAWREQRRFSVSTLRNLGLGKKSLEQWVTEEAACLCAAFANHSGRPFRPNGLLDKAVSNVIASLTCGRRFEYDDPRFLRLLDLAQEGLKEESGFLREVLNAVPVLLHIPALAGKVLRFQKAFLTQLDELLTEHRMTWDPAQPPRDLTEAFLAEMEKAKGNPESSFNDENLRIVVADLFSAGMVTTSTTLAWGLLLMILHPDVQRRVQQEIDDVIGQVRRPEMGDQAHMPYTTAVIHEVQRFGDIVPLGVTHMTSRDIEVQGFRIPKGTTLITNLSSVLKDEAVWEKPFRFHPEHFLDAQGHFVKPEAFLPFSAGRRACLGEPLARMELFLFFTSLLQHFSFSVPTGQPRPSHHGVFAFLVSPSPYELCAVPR

Tests used:
[1] = qHTS assay for small molecule agonists of the p53 signaling pathway (AID 651631; calls by dose curve; note: nearly all actives have a fitted effect of over 15% in size); conditions: HCT-116 p53RE-bla reporter, beta-lactamase FRET ratio, 16 h
Procedure, shortened: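 HCT-116 cells carrying a beta-lactamase reporter under p53 response elements were dosed with compound for 16 h at 37 °C. LiveBLAzer B/G FRET substrate was then added for 2 h at room temperature, and fluorescence intensity was read to detect pathway agonism.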

[2] = target: Glucocorticoid receptor (Homo sapiens) (UniProt P04150); assay: qHTS assay to identify small molecule antagonists of the glucocorticoid receptor (GR) signaling pathway (AID 720692; active = well fitted inhibition curve with a large enough effect in the signal ratio in the repeat runs, not every such curve was filed as active; inconclusive = weak or mixed curves, or effect the other way; inactive = no such curve, though single readings can be large or run the other way; the % refers to the signal ratio); conditions: GR-bla HeLa, beta-lactamase FRET ratio, dexamethasone-stimulated, 18 h; activity change, negative = inhibition: at 58.5 µM (top of the series)
[3] = qHTS assay for identifying genotoxic compounds that show differential cytotoxicity against isogenic chicken DT40 cell lines with known DNA damage response pathways - wild type cell line (AID 743012); conditions: DT40 wild type chicken cells viability, CellTiter-Glo, 40 h; note: nearly all actives have a fitted effect of over 60% in size
Procedure, shortened: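 300 wt DT40 cells/well; cpd (DMSO) pintool-transferred after ~0.5 h at 37 C/5% CO2; 40 h incubation; CellTiter-Glo added, 30 min RT; luminescence read.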

[4] = qHTS assay to identify small molecule antagonists of the thyroid receptor (TR) signaling pathway - cell viability counter screen (AID 743064); conditions: GH3.TRE-Luc viability, CellTiter-Fluor, 24 h; note: nearly all actives have a fitted effect of over 50% in size
Procedure, shortened: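 GH3.TRE-Luc rat pituitary cells dosed after 4 hr plating, co-stimulated with T3 at 1 nM final, incubated 23.5 h at 37 C. Viability measured in the same wells by CellTiter-Fluor fluorescence after 30 min further at 37 C.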

[5] = qHTS assay to identify small molecule antagonists of the estrogen receptor alpha (ER-alpha) signaling pathway - cell viability counter screen (AID 743074; calls by dose curve;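 note: HEK293 cells carrying ER-alpha-UAS-bla reporter stimulated with 17beta-estradiol; nearly all actives have a fitted effect of over 45% in size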); conditions: ERalpha-bla HEK293 viability, CellTiter-Glo luminescence, 18 h
[6] = target: Estrogen receptor (Homo sapiens) (UniProt P03372); assay: qHTS assay to identify small molecule agonists of the estrogen receptor alpha (ER-alpha) signaling pathway using the BG1 cell line (AID 743079); conditions: BG1Luc4E2 cells, ERE-luciferase agonist, 22 h; note: nearly all actives have a fitted effect of over 20% in size
[7] = qHTS assay to identify small molecule antagonists of the estrogen receptor alpha (ER-alpha) signaling pathway using the BG1 cell line (AID 743080; calls by dose curve;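 note: BG1 cells stimulated with 17beta-estradiol alongside compound; nearly all actives have a fitted effect of over 25% in size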); conditions: BG1Luc4E2 ERE-luciferase antagonist mode, luminescence; activity change, negative = inhibition: at 70.3 µM (top of the series)
Procedure, shortened: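 BG1-Luc-4E2 cells (endogenous full-length ER-alpha, stable 4×ERE-luciferase) were starved 5 days in phenol-red-free medium with 10% charcoal-stripped FBS, plated 24 h, then given compound plus 17beta-estradiol for 21.5 h at 37 C; ONE-Glo luminescence read after 30 min.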

[8] = qHTS assay to identify small molecule that activate the aryl hydrocarbon receptor (AhR) signaling pathway - cell viability counter screen (AID 743086); conditions: HepG2-AhR-luc viability, CellTiter-Fluor, 24 h; note: nearly all actives have a fitted effect of over 45% in size
Procedure, shortened: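 HepG2-AhR-luc (HG2L7.5c1) cells, 4000/well, were preincubated 5 h at 37C, exposed to compound in qHTS format for 24 hr at 37C, then given CellTiter-Fluor for 30 min; viability was read as fluorescence in the reporter wells.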

[9] = qHTS assay to identify small molecule antagonists of the constitutive androstane receptor (CAR) signaling pathway - cell viability counter screen (AID 1224837); conditions: HepG2-CYP2B6-hCAR viability, CellTiter-Fluor, 23 h; co-treated with 50 nM CITCO; note: nearly all actives have a fitted effect of over 45% in size
Procedure, shortened: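 In quantitative HTS format, compounds at 15 concentrations were applied to HepG2 cells double-transfected with hCAR and CYP2B6-2.2kb under 50 nM CITCO stimulation; live-cell protease activity was read after 23 hr via CellTiter-Fluor.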

[10] = qHTS assay to identify small molecule antagonists of the estrogen related receptor signaling pathway with the pleiotropic PPARgamma coactivator (PGC) from Tox21 10K library - cell viability counter screen (AID 1224840; active = well fitted cell-killing curve with a large enough effect in the repeat runs, not every such curve was filed as active; inconclusive = weak or mixed curves, or effect the other way; inactive = no such curve, though single readings can be large or run the other way; note: nearly all actives have a fitted effect of over 40% in size); conditions: PGC/ERR reporter cells viability, CellTiter-Fluor, 17.5 h
Procedure, shortened: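 Viability counter screen, PGC/ERR cells: 17.5 h compound exposure at 37 C, CellTiter-Fluor fluorescence endpoint.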

[11] = qHTS assay to identify small molecule antagonists of the estrogen receptor alpha (ER-alpha) signaling pathway using the BG1 cell line in the presence of 0.1 nM 17-beta-estradiol - cell viability counter screen (AID 1259241); conditions: VM7Luc4E2 (BG1) viability, CellTiter-Fluor protease, 22 h; 0.1 nM estradiol agonist added; note: nearly all actives have a fitted effect of over 40% in size
Procedure, shortened: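 VM7Luc4E2 cells (endogenous full-length ER-alpha, 4xERE-luciferase), cultured 5 days in charcoal-stripped serum, exposed to compounds with 0.1 nM 17beta-estradiol (final) for 22 hr at 37C. Viability read in same wells as live-cell protease fluorescence after 30 min.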

[12] = qHTS assay to identify small molecule antagonists of the androgen receptor (AR) signaling pathway using the MDA cell line in the presence of 0.5 nM R1881 - cell viability counter screen (AID 1259242); conditions: MDA-kb2 viability, CellTiter-Fluor protease fluorescence, 16 h; note: nearly all actives have a fitted effect of over 45% in size
Procedure, shortened: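 Human breast carcinoma MDA-kb2 cells, cultured without CO2, receive compounds alongside 0.5 nM (final) R1881 agonist. After 16 hr at 37C, viability is taken as live-cell protease signal.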

[13] = qHTS assay to identify small molecule agonists of the sonic hedgehog signaling (Shh) pathway - cell viability counter screen (AID 1259366); conditions: NIH/3T3 Gli1-Luc viability, CellTiter-Fluor, 24 h; note: nearly all actives have a fitted effect of over 50% in size
Procedure, shortened: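 NIH/3T3-derived Gli1-Luc reporter cells, 2,000 per well, received compound after 4 h and were treated about 23 h at 37C. Viability measured in the same wells by CellTiter-Fluor fluorescence after 1 h.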

[14] = qHTS assay to identify small molecule antagonists of the estrogen receptor beta (ER-beta) signaling pathway - cell viability counter screen (AID 1259382); conditions: ER-beta-UAS-bla HEK293T viability, CellTiter-Glo luminescence, 16 h; note: nearly all actives have a fitted effect of over 55% in size
Procedure, shortened: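 HEK293T ER-beta-UAS-bla, 2% charcoal-stripped FBS; compounds + 1nM E2 16 hr 37C; CellTiter-Glo luminescence, 30 min RT.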

[15] = qHTS assay to identify small molecule agonists of the progesterone receptor (PR) signaling pathway - cell viability counter screen (AID 1346799; calls by dose curve; note: nearly all actives have a fitted effect of over 45% in size); conditions: PR-UAS-bla HEK293T viability, CellTiter-Glo luminescence, 16 h
Procedure, shortened: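 Counter screen in the PR-UAS-bla HEK293T wells (2% charcoal-stripped FBS, 16 h compound exposure at 37 C) after the bla read. CellTiter-Glo added, 30 min at room temperature, luminescence read as cell viability.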

[16] = qHTS assay to identify small molecule agonists of the TGF-beta/Smad signaling pathway (AID 1346859; active = well fitted activation curve with a large enough effect in the signal ratio in the repeat runs, not every such curve was filed as active; inconclusive = weak or mixed curves; the % refers to the signal ratio); conditions: SBE-bla HEK293T, TGF-beta/Smad beta-lactamase reporter, 5 h
Procedure, shortened: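 SBE-bla HEK293T cells plated overnight, then compound exposure for 5 h at 37 C. Beta-lactamase reporter read with LiveBLAzer B/G FRET substrate after 2 h at room temperature, fluorescence at 405 nm excitation, 460/530 nm emission.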

[17] = Human pregnane X receptor (PXR) small molecule agonists, qHTS cell viability counter screen (AID 1346977); conditions: PXR-Luc HepG2 viability, CellTiter-Fluor, 24 h; note: nearly all actives have a fitted effect of over 50% in size
Procedure, shortened: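 PXR-Luc HepG2 cells (2,000/well, 5% charcoal-stripped FBS) preincubated 5 hr, then exposed to compounds 24 hr at 37 C. Viability read in the same wells by CellTiter-Fluor fluorescence, reagent added at 23 hr, 1 hr incubation.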

[18] = Caspase-3/7 induction in CHO-K1 cells by small molecules, qHTS cell viability counter screen (AID 1346979); conditions: CellTiter-Fluor fluorescence, 17 h; note: nearly all actives have a fitted effect of over 35% in size
Procedure, shortened: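 Wild-type CHO-K1 cells (1,500/well) treated with compound after 5 h plating; after 16 h at 37C, viability read as CellTiter-Fluor fluorescence following 1 h reagent incubation, in the same wells as the caspase read.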

[19] = Caspase-3/7 induction in HepG2 cells by small molecules, qHTS cell viability counter screen (AID 1346981); conditions: CellTiter-Fluor fluorescence, 17 h; note: nearly all actives have a fitted effect of over 30% in size
Procedure, shortened: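 The parent HepG2 line is plated at 2,000 cells per well and rested 5 hr before compound pinning from DMSO stocks. Following a 16-hr treatment at 37 C, a fluorogenic live-cell substrate (CellTiter-Fluor) reports viability after 1 hr.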

[20] = target: Cytochrome P450 2D6 (Homo sapiens) (UniProt P10635); assay: Cytochrome P450 Family 2 Subfamily D Member 6 (CYP2D6) small molecule antagonists: luciferase reporter qHTS assay (AID 1671196); conditions: P450-Glo CYP2D6 enzyme assay, luciferin luminescence, 1 h; note: nearly all actives have a fitted effect of over 50% in size
Procedure, shortened: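 Quantitative HTS of Tox21 chemicals against CYP2D6 using a luminescent proluciferin substrate. After NADPH addition, 1 h room-temperature reaction; luminescence recorded 20 min post detection reagent.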

Measured: Potency
Potency is the fitted concentration of half-maximal effect.

Cc1cc([N+](=O)[O-])c(O)c([N+](=O)[O-])c1
inconclusive: [1] 24.6 µM | [2] 24.8 µM | [3] 61.8 µM | [4] 27.6 µM | [5] 22.1 µM | [6] 30.9 µM | [7] 27.6 µM | [8] 49.1 µM | [9] 61.8 µM | [10] 69.3 µM | [11] 43.7 µM | [12] 61.8 µM | [13] 61.8 µM | [14] 27.6 µM | [15] 24.6 µM | [16] 55.5 µM | [17] 69.3 µM | [18] 69.3 µM | [19] 69.3 µM | [20] 71.7 µM
